PubChem BioAssay AID1259331 | Drosophila RNAi Screening Center – 2017

Assay: 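Knock-downs that alter ATP level after a high zinc chloride dose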 (primary screen)
System: Drosophila S2R+ cells
Reagents: long dsRNA against Drosophila genes
Time to read-out: 5 days (4 days knock-down, then 1 day zinc)
Conditions: zinc chloride at 15 mM final level for 1 day
Detection: 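Total cellular ATP measured by luciferase luminescence as a viability proxy, turned into Z scores from three plate copies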
Scale: mean Z score: higher = more ATP than other wells, better survival under zinc; ATP luminescence: higher = more ATP, more viable cells
Active means: 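a reagent is called a hit when its Z score is above 1.5 or below -1.5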
Calls: active = hit, ATP up or down; inactive = not a hit
The deposit covers about 3,100 reagents; below is an unselected part. 126 of all reagents (4.1%) were called active. 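Calls are per reagent; zinc was so toxic that few knock-downs lowered ATP further, so most hits raise ATP.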 Raw values are not corrected between plates. The record does not give: the amount of reagent.

For ppk30 (pickpocket 30) [DRSC15302], how do the results read?
mean Z score: 0.746; ATP luminescence, replicate 1: 74081; ATP luminescence, replicate 2: 82865; outcome: inactive

Which result is listed for ppk30 (pickpocket 30) [DRSC39594]?
mean Z score: -0.957; ATP luminescence, replicate 1: 56876; ATP luminescence, replicate 2: 37656; outcome: inactive

Which result is listed for Ptp4E (Protein tyrosine phosphatase 4E) [DRSC18701]?
mean Z score: -0.427; ATP luminescence, replicate 1: 38273; ATP luminescence, replicate 2: 39953; outcome: inactive

How did the screen score Ptp4E (Protein tyrosine phosphatase 4E) [DRSC36632]?
mean Z score: -0.396; ATP luminescence, replicate 1: 44994; ATP luminescence, replicate 2: 40998; outcome: inactive

For Ptp4E (Protein tyrosine phosphatase 4E) [DRSC36633], what was measured?
mean Z score: -0.344; ATP luminescence, replicate 1: 41359; ATP luminescence, replicate 2: 41812; outcome: inactive

Which result is listed for CG12773 [DRSC18580]?
mean Z score: -0.514; ATP luminescence, replicate 1: 41742; ATP luminescence, replicate 2: 36990; outcome: inactive

How did the screen score CG12773 [DRSC24900]?
mean Z score: -0.678; ATP luminescence, replicate 1: 41102; ATP luminescence, replicate 2: 39679; outcome: inactive

How did the screen score CG1265 [DRSC08288]?
mean Z score: -0.338; ATP luminescence, replicate 1: 69413; ATP luminescence, replicate 2: 57391; outcome: inactive

What did the screen give for CG1265 [DRSC39523]?
mean Z score: -0.0919; ATP luminescence, replicate 1: 50904; ATP luminescence, replicate 2: 45795; outcome: inactive

For CG10413 [DRSC02052], how do the results read?
mean Z score: -0.733; ATP luminescence, replicate 1: 42591; ATP luminescence, replicate 2: 49359; outcome: inactive

For CG31729 [DRSC02524], what does the deposit list?
mean Z score: -0.325; ATP luminescence, replicate 1: 49400; ATP luminescence, replicate 2: 54013; outcome: inactive

With CG31729 [DRSC02946], what was measured?
mean Z score: -0.586; ATP luminescence, replicate 1: 40022; ATP luminescence, replicate 2: 40547; outcome: inactive

What is on record for CG31729 [DRSC25841]?
mean Z score: 0.822; ATP luminescence, replicate 1: 65725; ATP luminescence, replicate 2: 69161; outcome: inactive

What did the screen give for CG1909 [DRSC17150]?
mean Z score: -0.425; ATP luminescence, replicate 1: 41431; ATP luminescence, replicate 2: 41656; outcome: inactive

For CG1909 [DRSC39638], what does the deposit list?
mean Z score: 0.247; ATP luminescence, replicate 1: 63770; ATP luminescence, replicate 2: 61164; outcome: inactive

With CG13801 [DRSC08335], how do the results read?
mean Z score: -0.391; ATP luminescence, replicate 1: 66493; ATP luminescence, replicate 2: 72191; outcome: inactive

Which result is listed for Lar (Leukocyte-antigen-related-like) [DRSC01707]?
mean Z score: -0.34; ATP luminescence, replicate 1: 36132; ATP luminescence, replicate 2: 38445; outcome: inactive

With Lar (Leukocyte-antigen-related-like) [DRSC03361], how do the results read?
mean Z score: -0.201; ATP luminescence, replicate 1: 53207; ATP luminescence, replicate 2: 53571; outcome: inactive

Which result is listed for Lar (Leukocyte-antigen-related-like) [DRSC36994]?
mean Z score: -0.47; ATP luminescence, replicate 1: 43468; ATP luminescence, replicate 2: 35650; outcome: inactive

Which result is listed for Tsp42Ep (Tetraspanin 42Ep) [DRSC06871]?
mean Z score: -0.531; ATP luminescence, replicate 1: 38685; ATP luminescence, replicate 2: 39508; outcome: inactive

What is on record for Task6 (TWIK-related acid-sensitive K[+] channel 6) [DRSC16530]?
mean Z score: -0.0596; ATP luminescence, replicate 1: 42765; ATP luminescence, replicate 2: 59380; outcome: inactive

For Task6 (TWIK-related acid-sensitive K[+] channel 6) [DRSC39545], what was measured?
mean Z score: -0.0263; ATP luminescence, replicate 1: 54562; ATP luminescence, replicate 2: 44548; outcome: inactive

How did the screen score Dg (Dystroglycan) [DRSC06718]?
mean Z score: -0.147; ATP luminescence, replicate 1: 63839; ATP luminescence, replicate 2: 68795; outcome: inactive

Which result is listed for Ca-alpha1T (Ca[2+]-channel protein alpha[[1]] subunit T) [DRSC17842]?
mean Z score: 0.359; ATP luminescence, replicate 1: 69854; ATP luminescence, replicate 2: 74181; outcome: inactive

What is on record for Ca-alpha1T (Ca[2+]-channel protein alpha[[1]] subunit T) [DRSC18357]?
mean Z score: -0.598; ATP luminescence, replicate 1: 32149; ATP luminescence, replicate 2: 34244; outcome: inactive

With Ca-alpha1T (Ca[2+]-channel protein alpha[[1]] subunit T) [DRSC21430], what was measured?
mean Z score: -0.734; ATP luminescence, replicate 1: 47069; ATP luminescence, replicate 2: 34690; outcome: inactive

Which result is listed for CG1824 [DRSC19796]?
mean Z score: 0.819; ATP luminescence, replicate 1: 78554; ATP luminescence, replicate 2: 80716; outcome: inactive

With CG1824 [DRSC39705], what does the deposit list?
mean Z score: -0.313; ATP luminescence, replicate 1: 57357; ATP luminescence, replicate 2: 57768; outcome: inactive

What is on record for PIG-Q (Phosphatidylinositol glycan anchor biosynthesis class Q) [DRSC19138]?
mean Z score: 0.117; ATP luminescence, replicate 1: 68949; ATP luminescence, replicate 2: 73683; outcome: inactive

What is on record for PIG-Q (Phosphatidylinositol glycan anchor biosynthesis class Q) [DRSC39435]?
mean Z score: 0.0866; ATP luminescence, replicate 1: 52203; ATP luminescence, replicate 2: 50035; outcome: inactive

Entries listed so far whose gene name starts with L or l:
Lar (Leukocyte-antigen-related-like) [DRSC01707] — mean Z score = -0.34; ATP luminescence, replicate 1 = 36132; ATP luminescence, replicate 2 = 38445; outcome = inactive
Lar (Leukocyte-antigen-related-like) [DRSC03361] — mean Z score = -0.201; ATP luminescence, replicate 1 = 53207; ATP luminescence, replicate 2 = 53571; outcome = inactive
Lar (Leukocyte-antigen-related-like) [DRSC36994] — mean Z score = -0.47; ATP luminescence, replicate 1 = 43468; ATP luminescence, replicate 2 = 35650; outcome = inactive
